From patent EP4310093A1, “AMINO ACID DERIVATIVE, PREPARATION METHOD THEREFOR, AND PHARMACEUTICAL COMPOSITION FOR TREATING HEPATITIS, COMPRISING SAME” (priority 2021, dated 2022)
Some of these results come from one statement about several compounds together.

Target: T1, NTCP (Homo sapiens, UniProt Q14973)
T1 construct: expressed in transfected cells; host or cells: HepG2-hNTCP-C4
T1 sequence (Q14973 1-349): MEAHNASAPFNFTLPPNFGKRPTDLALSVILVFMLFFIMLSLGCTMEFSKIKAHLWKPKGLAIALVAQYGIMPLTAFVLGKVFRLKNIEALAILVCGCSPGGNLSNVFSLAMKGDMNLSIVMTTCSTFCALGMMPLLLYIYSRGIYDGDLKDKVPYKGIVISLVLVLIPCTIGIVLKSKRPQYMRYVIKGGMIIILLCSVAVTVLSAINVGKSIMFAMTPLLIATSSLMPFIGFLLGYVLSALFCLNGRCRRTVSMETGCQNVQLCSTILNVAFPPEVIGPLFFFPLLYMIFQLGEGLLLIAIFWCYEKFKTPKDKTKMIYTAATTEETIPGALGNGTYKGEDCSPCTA
Test: Inhibition of the binding between PreS1 (FITC-labelled) and NTCP expressing cell lines, flow cytometry
Details: for ability to inhibit the binding between PreS1 and NTCP expressing cell lines / relative fluorescence intensity compared to Comparative Example 1 (LCA) / effect of inhibiting the binding between PreS1 and NTCP expressing cell lines by treatment concentration: 50 µM compound; for ability to inhibit the binding between PreS1 and NTCP expressing cell lines / effect of inhibiting the binding between PreS1 and NTCP expressing cell lines by treatment concentration: 20 nM PreS1; for ability to inhibit the binding between PreS1 and NTCP expressing cell lines: comparison of 18 compounds (Experimental Example 1-3); for relative fluorescence intensity compared to Comparative Example 1 (LCA): 20 nM PreS1, HepG2-hNTCP-C4 cell line; for effect of inhibiting the binding between PreS1 and NTCP expressing cell lines by treatment concentration: 0.2 µM, 2 µM, 10 µM
Protocol: HepG2-hNTCP-C4 cell line, a cell line expressing NTCP, was seeded in a 6 well plate at a density of 2×10^5/well and incubated at 4°C for 30 minutes when the confluency reached 80% after overnight incubation for 2 days. Thereafter, 20 nM PreS 1 (Myr-[…]-Lys(FITC)) and the compounds in Example 1, Examples 38 to 56 or the compound in Comparative Example 1 were treated by diluting in culture media at 4°C at a concentration of 50 µM respectively, and the media was suctioned after 2 hours, followed by washing 3 times with 4°C PBS. In order to take the cells off from the plate, 500 µl of 0.5 mM EDTA PBS solution was treated, and then incubation was performed at 37°C for 15 minutes to check whether the cells fell off through an optical microscope. After taking off the cells by pipetting, the cells were collected in a 1.5 ml tube and centrifuged (4000 rpm, 4°C, 3 min). After suctioning the supernatant, the pellet was washed 3 times with 4°C PBS, and then green fluorescence was measured via flow cytometry. In this case, taurocholic acid (TCA), a compound known as a substrate of NTCP to reduce the entry of HBV or HDV, was used as a positive control group.
In the graph at the top of FIG. 1, black (1) and red (2) indicate a negative control group with no treatment and an HBV-induced group (HBV preS1) solely treated with PreS1, respectively. Blue (HBV preS1+HBV entry inhibitor) (3) is the fluorescence value for each of Examples or Comparative Examples, evaluated that the closer to the negative control group, the more inhibited the binding between PreS1 and the NTCP cell line.
The experimental method was the same as in the Experimental Example 1-1, and 20 nM PreS1 and each compound were treated at 4 concentrations (0.2 µM, 2 µM, 10 µM, 50 µM).
With an expectation that there is a structure-activity relationship among compounds composed of bile acid and amino acids, for each of bile acids in Comparative Example 1 (lithocholic acid, LCA), Comparative Example 2 (ursodeoxycholic acid, UDCA), Comparative Example 3 (cholic acid, CA), Comparative Example 4 (hyodeoxycholic acid, HDCA), Comparative Example 5 (deoxycholic acid, DCA), and Comparative Example 6 (chenodeoxycholic acid, CDCA), an evaluation experiment was conducted on an ability to inhibit the binding between PreS1 and NTCP expressing cell lines, and also for Examples 1 (LCA-Ile) and Example 44 (LCA-Val) as well as the compounds in Example 2 (UDCA-Ile), Example 3 (UDCA-Val), Example 6 (CA-Ile), Example 7 (CA-Val), Example 8 (HDCA-Ile), Example 9 (HDCA-Val), Example 10 (DCA-Ile), Example 11 (DCA-Val), Example 14 (CDCA-Ile), and Example 15 (CDCA-Val) in which bile acid parts (lithocholic acid) of Example 1 (LCA-Ile) and Example 44 (LCA-Val) were substituted with other types of bile acids in Comparative Examples 2 to 6, an evaluation experiment was conducted on an ability to inhibit the binding between PreS1 and NTCP expressing cell lines. The experimental method was the same as in the Experimental Example 1-1, and 18 compounds in the Comparative Examples 1 to 6, Examples 1 to 3, Examples 6 to 11, Examples 14 to 15, and Example 44 were treated at a concentration of 50 µM along with 20 nM PreS 1.
In FIG. 9, an evaluation experiment was conducted to check a degree of inhibiting the binding between PreS1 and NTCP expressing cell lines for compounds in Examples 4 to 5, Examples 12 to 13, Examples 16 to 17, and Comparative Examples 2 (ursodeoxycholic acid, UDCA), Comparative Examples 5 (deoxycholic acid, DCA), and Comparative Examples 6 (chenodeoxycholic acid, CDCA) according to the present disclosure. The experimental method was the same as the Experimental Example 1-1.
In the Experimental Examples 1-4, it was determined whether there is additionally concentration dependence for Example 4 (UDCA-Trp), a compound with good inhibitory ability. […]

SMILES | ability to inhibit the binding between PreS1 and NTCP expressing cell lines | relative fluorescence intensity compared to Comparative Example 1 (LCA) | other results
CC(C)[C@H](NC(=O)CC[C@@H](C)[C@H]1CC[C@H]2[C@@H]3[C@@H](O)C[C@@H]4C[C@H](O)CC[C@]4(C)[C@H]3CC[C@]12C)C(=O)O [Example 3, (S)-2-((R)-4-((3R,5S,7S,8R,9S,10S,13R,14S,17R)-3,7-dihydroxy-10,13-dimethyl-hexadecahydro-1H-cyclopenta[a]phenanthren-17-yl)pentanamido)-3-methylbutanoic acid] | relatively excellent | – | –
CC(C)C[C@H](NC(=O)CC[C@@H](C)[C@H]1CC[C@H]2[C@@H]3CC[C@@H]4C[C@H](O)CC[C@]4(C)[C@H]3CC[C@]12C)C(=O)O [Example 47] | – | low and lower | –
C[C@H](CCC(=O)N[C@@H](CO)C(=O)O)[C@H]1CC[C@H]2[C@@H]3CC[C@@H]4C[C@H](O)CC[C@]4(C)[C@H]3CC[C@]12C [Example 51, (S)-3-hydroxy-2-((R)-4-((3R,5R,8R,9S,10S,13R,14S,17R)-3-hydroxy-10,13-dimethyl-hexadecahydro-1H-cyclopenta[a]phenanthren-17-yl)pentanamido)propanoic acid] | – | low | –
CC(C)[C@H](NC(=O)CC[C@@H](C)[C@H]1CC[C@H]2[C@@H]3C[C@H](O)[C@@H]4C[C@H](O)CC[C@]4(C)[C@H]3CC[C@]12C)C(=O)O [Example 9, (S)-2-((R)-4-((3R,5R,6S,8S,9S,10R,13R,14S,17R)-3,6-dihydroxy-10,13-dimethyl-hexadecahydro-1H-cyclopenta[a]phenanthren-17-yl)pentanamido)-3-methylbutanoic acid] | relatively excellent | – | –
CC[C@@H](C)[C@H](NC(=O)CC[C@@H](C)[C@H]1CC[C@H]2[C@@H]3C[C@H](O)[C@@H]4C[C@H](O)CC[C@]4(C)[C@H]3CC[C@]12C)C(=O)O [Example 8, (2S,3R)-2-((R)-4-((3R,5R,6S,8S,9S,10R,13R,14S,17R)-3,6-dihydroxy-10,13-dimethyl-hexadecahydro-1H-cyclopenta[a]phenanthren-17-yl)pentanamido)-3-methylpentanoic acid] | relatively excellent | – | –
C[C@H](NC(=O)CC[C@@H](C)[C@H]1CC[C@H]2[C@@H]3CC[C@@H]4C[C@H](O)CC[C@]4(C)[C@H]3CC[C@]12C)C(=O)O [Example 46, (S)-2-((R)-4-((3R,5R,8R,9S,10S,13R,14S,17R)-3-hydroxy-10,13-dimethyl-hexadecahydro-1H-cyclopenta[a]phenanthren-17-yl)pentanamido)-3-propanoic acid] | – | low | –
CSCC[C@H](NC(=O)CC[C@@H](C)[C@H]1CC[C@H]2[C@@H]3CC[C@@H]4C[C@H](O)CC[C@]4(C)[C@H]3CC[C@]12C)C(=O)O [Example 48, (S)-2-((R)-4-((3R,5R,8R,9S,10S,13R,14S,17R)-3-hydroxy-10,13-dimethyl-hexadecahydro-1H-cyclopenta[a]phenanthren-17-yl)pentanamido)-4-(methylthio)butanoic acid] | – | low and lower | –
CC[C@@H](C)[C@H](NC(=O)CC[C@@H](C)[C@H]1CC[C@H]2[C@@H]3[C@@H](O)C[C@@H]4C[C@H](O)CC[C@]4(C)[C@H]3CC[C@]12C)C(=O)O [Example 2, (2S,3R)-2-((R)-4-((3R,5S,7S,8R,9S,10S,13R,14S,17R)-3,7-dihydroxy-10,13-dimethyl-hexadecahydro-1H-cyclopenta[a]phenanthren-17-yl)pentanamido)-3-methylpentanoic acid] | relatively excellent | – | –
C[C@H](CCC(=O)N[C@@H](Cc1c[nH]c2ccccc12)C(=O)O)[C@H]1CC[C@H]2[C@@H]3CC[C@@H]4C[C@H](O)CC[C@]4(C)[C@H]3C[C@H](O)[C@]12C [Example 12, (S)-2-((R)-4-((3R,5R,8R,9S,10S,12S,13R,14S,17R)-3,12-dihydroxy-10,13-dimethyl-hexadecahydro-1H-cyclopenta[a]phenanthren-17-yl)pentanamido)-3-(1H-indol-3-yl)propanoic acid] | – | – | relative fluorescence intensity in the comparison with Comparative Example 5 (DCA) (Experimental Example 1-4, method as 1-1): the same or lower
CC[C@@H](C)[C@H](NC(=O)CC[C@@H](C)[C@H]1CC[C@H]2[C@@H]3[C@H](O)C[C@@H]4C[C@H](O)CC[C@]4(C)[C@H]3CC[C@]12C)C(=O)O [Example 14, (2S,3R)-2-((R)-4-((3R,5S,7R,8R,9S,10S,13R,14S,17R)-3,7-dihydroxy-10,13-dimethyl-hexadecahydro-1H-cyclopenta[a]phenanthren-17-yl)pentanamido)-3-methylpentanoic acid] | relatively excellent | – | –
CC[C@@H](C)[C@H](NC(=O)CC[C@@H](C)[C@H]1CC[C@H]2[C@@H]3CC[C@@H]4C[C@H](O)CC[C@]4(C)[C@H]3C[C@H](O)[C@]12C)C(=O)O [Example 10, (2S,3R)-2-((R)-4-((3R,5R,8R,9S,10S,12S,13R,14S,17R)-3,12-dihydroxy-10,13-dimethyl-hexadecahydro-1H-cyclopenta[a]phenanthren-17-yl)pentanamido)-3-methylpentanoic acid] | relatively excellent | – | –
CC[C@@H](C)[C@H](NC(=O)CC[C@@H](C)[C@H]1CC[C@H]2[C@@H]3CC[C@@H]4C[C@H](O)CC[C@]4(C)[C@H]3CC[C@]12C)C(=O)O [Example 1, (2S,3R)-2-((R)-4-((3R,5R,8R,9S,10S,13R,14S,17R)-3-hydroxy-10,13-dimethyl-hexadecahydro-1H-cyclopenta[a]phenanthren-17-yl)pentanamido)-3-methylpentanoic acid] | relatively excellent | low and lower | effect of inhibiting the binding between PreS1 and NTCP expressing cell lines by treatment concentration: concentration dependent
CC(C)[C@H](NC(=O)CC[C@@H](C)[C@H]1CC[C@H]2[C@@H]3CC[C@@H]4C[C@H](O)CC[C@]4(C)[C@H]3CC[C@]12C)C(=O)O [Example 44, (S)-2-((R)-4-((3R,5R,8R,9S,10S,13R,14S,17R)-3-hydroxy-10,13-dimethyl-hexadecahydro-1H-cyclopenta[a]phenanthren-17-yl)pentanamido)-3-methylbutanoic acid] | relatively excellent | low and lower | effect of inhibiting the binding between PreS1 and NTCP expressing cell lines by treatment concentration: concentration dependent
